Here are results for three molecules from article PMC12676205, “New Se‐Compounds With Antileishmanial, Antitumor, and Carbonic Anhydrase Inhibitory Properties” (Archiv Der Pharmazie, 2025).

Series [1] deals with L. major promastigotes. As to the kind of experiment: Leishmanicidal activity against promastigotes (MTT), L. major. The format is cell-based, Leishmania major. The settings on record: CC50 THP‐1 / IC50 L. major promastigotes. The protocol:
(§1) The synthesized compounds were tested for their antileishmanial activity against promastigotes of L. major and L. infantum at four concentrations (1, 10, 50, and 100 µM) for 48 h using the 3‐(4,5‐dimethylthiazol‐2‐yl)‐2,5‐diphenyltetrazolium bromide (MTT) assay. In this evaluation, the activity was expressed in IC50 (concentration inhibiting the parasite growth by 50%). […] The CC50 was defined as the concentration of selenoesters that led to a reduction in the viability of the macrophages, such that only 50% of the cells survived when compared to the control group. This cell line, derived from the blood of a human with acute monocytic leukemia, was chosen as it has been widely reported that it resembles tissue macrophages to various extents as well as supports the infection by numerous Leishmania promastigotes. The selectivity indexes (SIs) were calculated as the ratio between toxicity on macrophages (THP‐1 cells)/antileishmanial activity. The data for standard control drugs (miltefosine and paromomycin) are included for comparison purposes.
(§2) The promastigotes of L. major (clone VI, MHOM/IL/80/Friendlin) and L. infantum (BCN‐150) were grown at 26°C under continuous shaking in M199 1× medium (Sigma, USA). This media was supplemented with 10% of heat‐inactivated fetal bovine serum (FBS) (Gibco, USA), 0.0005% (w/v) hemin, 0.1 mM adenine, 25 mM HEPES (pH 7.2), 0.0001% (w/v) biotin, and 100 UI/mL penicillin and […] streptomycin (Gibco, USA).
(§3) The antileishmanial activity of the reported selenoesters was determined using the MTT assay as previously described during the logarithmic growth phase of the tested promastigotes of L. major and L. infantum. Briefly, the Leishmania parasites were seeded into 96‐well flat‐bottom plates (3 × 10^5 parasites/100 µL) and treated with four different concentrations ranging between 1 and 100 µM of each selenoester at 26°C for 48 h. Afterwards, 20 µL of MTT (5 mg/mL in PBS) was added to each well and incubated for 4 h under the same conditions. […] The absorbances were determined on a Multiskan EX photometric plate reader for microplates at 540 nm. […]

In series [2] the test system is L. infantum promastigotes. The series is described as follows: Leishmanicidal activity against promastigotes (MTT), L. infantum. The settings on record: CC50 THP‐1 / IC50 L. infantum promastigotes. The format is cell-based, Leishmania infantum. The protocol: as §1, §2, §3

Consider `O=C(C[Se]C(=O)c1ccccc1)Nc1cccc(OC(F)(F)F)c1` [Compound 3, Se‐(2‐oxo‐2‐((3‐(trifluoromethoxy)phenyl)amino)ethyl)benzoselenoate], for which the “SI L. major” value in series [1] is reported as > 20.68. Besides, the “SI L. infantum” value in series [2] is on record as > 30.35.
Turning to `O=C(C[Se]C(=O)c1ccco1)Nc1ccc([N+](=O)[O-])c(C(F)(F)F)c1` [Compound 5, Se‐(2‐((4‐nitro‐3‐(trifluoromethyl)phenyl)amino)‐2‐oxoethyl)furan‐2‐carboselenoate], the “SI L. major” value in series [1] is 5.91. Moreover, the “SI L. infantum” value in series [2] is listed as 3.29.
For `O=C(C[Se]C(=O)c1ccco1)Nc1cccc(OC(F)(F)F)c1` [Compound 6, Se‐(2‐oxo‐2‐((3‐(trifluoromethoxy)phenyl)amino)ethyl)furan‐2‐carboselenoate], in that order: 3.83 and 6.47.
